# This is one part of the list.
# Molecular target: T1, OsSMF1 (Oryza sativa, UniProt Q6ZLB0 1-436)
# T1 sequence: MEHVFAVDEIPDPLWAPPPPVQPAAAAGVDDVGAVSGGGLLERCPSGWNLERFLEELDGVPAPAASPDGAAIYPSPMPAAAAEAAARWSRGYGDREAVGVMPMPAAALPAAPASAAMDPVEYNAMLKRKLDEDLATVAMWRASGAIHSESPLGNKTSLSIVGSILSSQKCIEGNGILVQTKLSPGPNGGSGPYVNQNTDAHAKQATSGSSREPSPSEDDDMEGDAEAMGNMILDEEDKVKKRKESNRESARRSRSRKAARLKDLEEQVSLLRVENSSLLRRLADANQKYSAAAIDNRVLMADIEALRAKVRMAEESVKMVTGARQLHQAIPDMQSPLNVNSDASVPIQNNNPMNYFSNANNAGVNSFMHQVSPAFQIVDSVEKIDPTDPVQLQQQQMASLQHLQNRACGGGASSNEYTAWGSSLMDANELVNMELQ
# Assay: protein-binding microarray (RPBM); PBS, 2% BSA, 51.3 ng/ul salmon testes DNA, 50 uM zinc acetate, 200 nM TF, 25 C, 1 h; high values mean tight binding
# Settings: protein: recombinant; tags: N-terminal polyhistidine and DsRed monomer fusion (pET32a); chain copies: 2; label: CyDye5-dUTP incorporated in the synthesized complementary strand; 3' TTTTT single-stranded linker to array surface; dsDNA, one strand shown
# Outline: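 An Axon 4000B scanner gave the binding signal as per-feature fluorescence intensity in arbitrary units. This followed washing of a custom Agilent array that had been incubated for 1 h at 25 °C with 200 nM protein in PBS, 2% BSA, salmon testes DNA and 50 µM zinc acetate. The proteins were transcription factors fused at the N-terminus to polyhistidine and DsRed, expressed in E. coli BL21-CodonPlus and purified on Ni–NTA.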
row,Sequence,binding signal
1,CTGAACGCGTTCGCACGCCACGGCAGCTGCCATGGCCGCCCGGAGTCACCTAGTGCAG,3340 fluorescence intensity (a.u.)
2,GCGGCGGCGGTGGGTGTCATGCCGGCGAGCACCATGGGCGCGGAGTCACCTAGTGCAG,3510 fluorescence intensity (a.u.)
3,CTCATCCTCCTCAATCACCGTTCGACTCGCTGCTTCCCCTCGGAGTCACCTAGTGCAG,3300 fluorescence intensity (a.u.)
4,ACATGGAGTTGGGCCTACTTCTAGACCCATGGTAAACTAACGGAGTCACCTAGTGCAG,20300 fluorescence intensity (a.u.)
5,CCGTGCGCCGCATCGCGTCACGCCACGCCGCGCGGGCCCGCGGAGTCACCTAGTGCAG,36200 fluorescence intensity (a.u.)
6,AGGAAAGGTTAATTACGTACGTACACGGGAAGGAGTAACCCGGAGTCACCTAGTGCAG,3340 fluorescence intensity (a.u.)
7,ATCTAAACACTAGTAGGAAAAGTTGGCAATTTGGTATTTACGGAGTCACCTAGTGCAG,4420 fluorescence intensity (a.u.)
8,ATGCAAAAGATATATAGGCTTGTTTTACTGAAGGTGGCTTCGGAGTCACCTAGTGCAG,39100 fluorescence intensity (a.u.)
9,GGCTCCAAATCATCTGCCTTCATTGTCAGGCTTCAGTAATCGGAGTCACCTAGTGCAG,3660 fluorescence intensity (a.u.)
10,ACACCGTCATCCGCGAGCTCGTCTGCGGCCTCCACGACATCGGAGTCACCTAGTGCAG,3770 fluorescence intensity (a.u.)
11,TCTTCAAACTTCCAACTTTTCCATCACATCAAAACTTTCCCGGAGTCACCTAGTGCAG,3340 fluorescence intensity (a.u.)
12,GTCGCTAGCCTGACCAAACCGCCGCCGTTGATGTGCTGCGCGGAGTCACCTAGTGCAG,3390 fluorescence intensity (a.u.)
13,CGCGCTCTCCGCCGCCCGCGCGCTCCCCAAGGGGCAGCAGCGGAGTCACCTAGTGCAG,15900 fluorescence intensity (a.u.)
14,TTATTTTGGTCAGTTGAAGTGTGGAAAATGGTGAAAATCTCGGAGTCACCTAGTGCAG,3880 fluorescence intensity (a.u.)
15,ATAAACCGTTACCGTACATCACCGTGTCATCATCTATCGACGGAGTCACCTAGTGCAG,5880 fluorescence intensity (a.u.)
16,GCTGCTCCCGACGGCGCCATCGACTCTGCTGATGTCCTCCCGGAGTCACCTAGTGCAG,3410 fluorescence intensity (a.u.)
17,GTTTTGTGACAGTCGCGTGACCTCGTAGGCTACTACTTGGCGGAGTCACCTAGTGCAG,3170 fluorescence intensity (a.u.)
18,ATACCAAGCTCCGATGACCCCGGGCGTGTCGTGTCGGCCGCGGAGTCACCTAGTGCAG,4950 fluorescence intensity (a.u.)
19,GCACGTGCGCAAGTCCATGACGTGAGCGCTTCCGGTCATTCGGAGTCACCTAGTGCAG,5170 fluorescence intensity (a.u.)
20,GCCATCTGACAACCAGTAAATGTACTGTCCACCGGGCCAACGGAGTCACCTAGTGCAG,6470 fluorescence intensity (a.u.)
21,AGAAGAACAGTCTGCACTCTGCACACGTCCCCATCTCCCCCGGAGTCACCTAGTGCAG,5940 fluorescence intensity (a.u.)

# Quoted from the listing for reference:
row,Sequence,binding signal
4,ACATGGAGTTGGGCCTACTTCTAGACCCATGGTAAACTAACGGAGTCACCTAGTGCAG,20300 fluorescence intensity (a.u.)
5,CCGTGCGCCGCATCGCGTCACGCCACGCCGCGCGGGCCCGCGGAGTCACCTAGTGCAG,36200 fluorescence intensity (a.u.)

# Following part

row,Sequence,binding signal
1,GAGCAAGACACGGATCGTCGCGTCGCCAAGTCACACGCAGCGGAGTCACCTAGTGCAG,5870 fluorescence intensity (a.u.)
2,GCGCGCCGTCGTGGCGCTGGCGGCCACCACGGTGGTCACCCGGAGTCACCTAGTGCAG,4120 fluorescence intensity (a.u.)
3,TAGATTCCCTTCCCTTCCACTGACACGTGGGTCCCACCACCGGAGTCACCTAGTGCAG,10200 fluorescence intensity (a.u.)
4,CCTTATTGTCTAGAATGATGTCATCTTTATATGATTGCAACGGAGTCACCTAGTGCAG,7480 fluorescence intensity (a.u.)
5,TCCACCCGTGCGTGCGTCCCACTCGCCTCCCACTCACCTCCGGAGTCACCTAGTGCAG,3470 fluorescence intensity (a.u.)
6,CCTTAGAAAAGGAAAACGGCCACATCATTCCCCACCTCATCGGAGTCACCTAGTGCAG,9190 fluorescence intensity (a.u.)
7,GTCGTCAGTCCGACGCAGTGTTCCATGGGAGCCACGTATGCGGAGTCACCTAGTGCAG,6930 fluorescence intensity (a.u.)
8,CTCTTGCCTCCGCCGTGGCGCCGTGGTGTGGTTTCTTGGTCGGAGTCACCTAGTGCAG,4340 fluorescence intensity (a.u.)
9,GCTCGTCCTCCGCTGCACCACTTGCATCCGCGCGCGCTTCCGGAGTCACCTAGTGCAG,3380 fluorescence intensity (a.u.)
10,GGCGGCAGCGACGGCGGAGGCGAGGGAGGGGAGGCGGCGGCGGAGTCACCTAGTGCAG,3930 fluorescence intensity (a.u.)
11,ACCTAGAAATACGCCCGACCCACATGTCAGTGGAATACGGCGGAGTCACCTAGTGCAG,3820 fluorescence intensity (a.u.)
12,AACGCCCGCGATCCACTTGCCACACCACGGCCACCACCACCGGAGTCACCTAGTGCAG,3410 fluorescence intensity (a.u.)
13,CTATTGTGAGACACGTGTAGTCTGCTTGTACTCATGAGTTCGGAGTCACCTAGTGCAG,11200 fluorescence intensity (a.u.)
14,ATTGGGAGCAATCACGCTGTTGATGAAGATGCTACTGTTGCGGAGTCACCTAGTGCAG,3140 fluorescence intensity (a.u.)
15,GCGCCGCTCCGCCCAAAATTTCCCAAACTCCCGCCCTCCTCGGAGTCACCTAGTGCAG,14900 fluorescence intensity (a.u.)
16,CACGTCGCCCTCGCCACAATCCACCTCACACGCGTGACCTCGGAGTCACCTAGTGCAG,4510 fluorescence intensity (a.u.)
17,GACAGTAAGACAGACTGAGTCAGACATGGCGTACTCCCTCCGGAGTCACCTAGTGCAG,8440 fluorescence intensity (a.u.)
18,TTACATACCGGTGTACACCTCATAGTTTCATGCTCCCAATCGGAGTCACCTAGTGCAG,3660 fluorescence intensity (a.u.)
19,GAGGGAATACAATATAAAATGTTCGCCGATTTTATTTAGACGGAGTCACCTAGTGCAG,31000 fluorescence intensity (a.u.)
20,ATAGGGGTACCTGTGCTAATCTCTGATGCCATCATCGGCACGGAGTCACCTAGTGCAG,3500 fluorescence intensity (a.u.)
21,CGTGCACGCCCGCGCAGTGTCACGCCATCGCCATCTACTGCGGAGTCACCTAGTGCAG,4600 fluorescence intensity (a.u.)
